# Measured values as given in PubChem BioAssay AID624297 (National Center for Advancing Translational Sciences (NCATS), 2012).
# Among all 340,000 compounds or so, about 6,200 (1.8%) were called active. Inconclusive results, whose numbers are uncertain, are shown with a selection of clear calls. The call rests on the fitted dose curve; in most records, active means well fitted activation curve with a large enough effect; inconclusive means small, poorly fitted or top-dose-only effect; inactive means no such curve, though single readings can be large or run the other way. Potencies of inconclusive entries are doubtful fits and often do not repeat.
# Assay: A quantitative high throughput screen for small molecules that induce DNA re-replication in SW480 colon adenocarcinoma cells. Further: nearly all actives have a fitted effect of over 55% in size.
# Conditions: Hoechst DNA content imaging, 48 h; series mostly up to 46.1 µM
# Summary of the method: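 DNA re-replication was detected as more nuclei of elevated Hoechst intensity after 48 hr exposure to compound (23 nL pinned per well of 250 cells).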
# Potency means the concentration at half of the fitted maximal effect.
row,Compound,Potency
1,S=C1N[C@H]2CCCC[C@@H]2N1,"inconclusive: 1.84 µM [activator, partial curve, poor fit]"
2,COc1ccc(NC(=S)N(CCN2CCOCC2)Cc2cc3cc4c(cc3[nH]c2=O)OCCO4)cc1,"inconclusive: 3.26 µM [activator, full curve, poor fit]"
3,CC1CCN(C(=O)/C(=C\c2cccs2)NC(=O)c2ccccc2)CC1,inactive
4,COc1ccccc1NC(=O)c1c(NC(=O)c2ccco2)sc2c1CCC2,"inconclusive: 20.6 µM [activator, single point]"
5,CCc1nn(CCCC(=O)N2CCN(c3cccc(C)c3C)CC2)c(=O)c2cc3occc3n12,inactive
6,COc1ccc(-n2c(=O)c3c4c(sc3n3c(=S)[nH]nc23)COC(C(C)C)C4)cc1 (stereo not given),"inconclusive: 25.9 µM [activator, partial curve, poor fit]"
7,CCCCCN(C(=O)NC(=O)Nc1ccccc1C)S(=O)(=O)c1ccccc1,"inconclusive: 29.1 µM [activator, single point]"
8,CCCCCCCCn1c(=O)c(C(=O)OC)c(N)c2ccccc21,inactive
9,C=CCOC(=O)N1CCC2CC1c1cc(-c3ccc(OC)cc3)ccc12 (stereo not given),"inconclusive: 29.1 µM [activator, partial curve, poor fit]"
10,O=[N+]([O-])c1cccc(-c2nc3ccc([N+](=O)[O-])cc3[nH]2)c1,inactive
11,S=C(NCCOCCOCCNC(=S)Nc1ccccc1)Nc1ccccc1,inactive
12,CCc1ccc2nc(SCC(=O)N3CC(=O)Nc4ccccc43)c(C#N)cc2c1,"inconclusive: 18.4 µM [activator, single point]"
13,CN(C)S(=O)(=O)c1cccc(-c2cn3ccccc3n2)c1,inactive
14,COc1cc(/C=N/Nc2ccccn2)ccc1OCC(C)C,"inconclusive: 23.1 µM [activator, partial curve, poor fit]"
15,CN(C)C(=O)N1CCC(C(=O)N2CCCC(C(=O)c3ccc(C(C)(C)C)cc3)C2)CC1 (stereo not given),"inconclusive: 6.51 µM [activator, single point]"
16,O=C(O)c1ccccc1/C=N/NC(=S)NCc1ccccc1,"inconclusive: 23.1 µM [activator, single point]"
17,c1ccc(N=Nc2ccc3cccccc2-3)cc1,inactive
18,CC(C)(C)S(=O)(=O)N1Cc2cc(=O)n(Cc3ccccc3)c(CCO)c2[C@@H]1CCO,"inconclusive: 0.651 µM [activator, partial curve, poor fit]"
19,C=CCn1c(C)c(C(C)=O)c(N2CCCC2)nc1=S,inactive
20,O=C(CCC(=O)N1CCSc2ccccc21)NC1CCCCC1,inactive

# Ordered by formula weight (largest number first): some entries from above
row,Compound,Potency
2,COc1ccc(NC(=S)N(CCN2CCOCC2)Cc2cc3cc4c(cc3[nH]c2=O)OCCO4)cc1,"inconclusive: 3.26 µM [activator, full curve, poor fit]"
15,CN(C)C(=O)N1CCC(C(=O)N2CCCC(C(=O)c3ccc(C(C)(C)C)cc3)C2)CC1 (stereo not given),"inconclusive: 6.51 µM [activator, single point]"
7,CCCCCN(C(=O)NC(=O)Nc1ccccc1C)S(=O)(=O)c1ccccc1,"inconclusive: 29.1 µM [activator, single point]"
3,CC1CCN(C(=O)/C(=C\c2cccs2)NC(=O)c2ccccc2)CC1,inactive
8,CCCCCCCCn1c(=O)c(C(=O)OC)c(N)c2ccccc21,inactive
